{"source": "patent US20170100489A1", "about": "(HANMEI XU, priority 2012, published 2017)", "assay": "general procedure: Fmoc solid-phase peptide synthesis; Fmoc-Ile-Wang resin", "conditions": "whole synthesis, scale 14.7 g resin", "note": "Where no end group is shown, it is not given here.", "data": [{"substance": "IVRRADRAAVPGGGGRGD-OH", "values": [{"measurement": "crude mass", "value": 9.5, "unit": "g"}]}]}
